Measured values from the supplement of paper PMC6445147.
Values scatter widely in this assay.

B1: human tRNA-Pro; a variant is named by its letters at N, in order (parent)
chain: GGCTCGTTGGTCTAGNGGTATGATTCTCGCTTAGGGTGCGAGAGGTCCCGGGTTCNNATCCCGGACGAGCCC

What was measured:
[1] = variants of: B1; experiment: tRNA Pol-III promoter activity, log2 (circRNA frequency / plasmid DNA frequency) (log2 ratio); higher = stronger promoter activity; conditions: HEK293T; construct: no Pol-II promoter ((-)CMV library)
[2] = variants of: B1; experiment: tRNA 3' processing efficiency (processed reads / all reads, maximum-likelihood estimate) (fraction); higher = more efficient 3' processing; conditions: HEK293T; construct: no Pol-II promoter ((-)CMV library)
[3] = variants of: B1; experiment: tRNA 5' processing efficiency (processed reads / all reads, maximum-likelihood estimate) (fraction); higher = more efficient 5' processing; conditions: HEK293T; construct: CMV Pol-II promoter ((+)CMV library, decapped)

| Variant | tRNA Pol-III promoter activity (log2) [1] | tRNA 3' processing efficiency [2] | tRNA 5' processing efficiency [3] |
| --- | --- | --- | --- |
| GAA T19A T59C | 2.41 | 0.6 | – |
| AAA T8C | 1.32 | 0.53 | – |
| AAA A14T T19C | 3.13 | 0.62 | – |
| GAA T8G T19G | -0.365 | 0.2 | – |
| GAA A14G A20T A58C T59C | 6.75 | 0.14 | – |
| GAC G50T | 5.16 | 0.43 | – |
| GAA G51T | 3.78 | 0.22 | – |
| AAA G17T A20G | 1.73 | 0.2 | – |
| GAG G15A A20T | 2.23 | 0.25 | – |
| GAA G9C | -3.32 | 0.29 | – |
| TAA T8G G15T A20T T59C | 3.93 | 0.33 | – |
| GAC G9T | -0.159 | 0.21 | – |
| GTG A14G A58G | 3.93 | 0.25 | – |
| GAA G9A A14G A58C | 4.36 | 0.16 | – |
| ATA T53A | 2.93 | 0.17 | – |
| GAA T19A A58G T59C | 4.84 | 0.87 | – |
| CAA T59G | 1.64 | 0.34 | – |
| GTA G9C A20C | 5.36 | 0.8 | – |
| AAC G9A | 4.25 | 0.2 | – |

| Variant | tRNA Pol-III promoter activity (log2) [1] | tRNA 3' processing efficiency [2] | tRNA 5' processing efficiency [3] |
| --- | --- | --- | --- |
| GAA G9T T19G A58G | 2.62 | 0.25 | – |
| CAA G18A A58C | 3.36 | 0.25 | – |
| CGA T53A | 2.62 | 0.25 | – |
| ACA G15T A58T | 5.84 | 0.57 | – |
| GAA G15C T19C T59G | 3.68 | 0.4 | – |
| CAA A20T A58T | 2.62 | 0.25 | – |
| CGA G15C A58T | 6.03 | 0.25 | – |
| ATC A58C | 5.71 | 0.06 | – |
| GAA G9C A14C | 1.23 | 0.25 | – |
| AAG T59G | 3.66 | 0.21 | – |
| TAA A14C | 0.535 | 0.15 | – |
| CAA A20T T59A | 3.38 | 0.12 | – |
| TCA T19C | 5.93 | 0.25 | – |
| GTT A14T T59C | 4.45 | 0.25 | – |
| AAA T59A | 1.69 | 0.42 | – |
| GAA T53G T59A | 0.771 | 0.25 | – |
| GAG T19C T59C | 4.36 | 0.25 | – |
| GTA T19A A20C | 4.38 | 0.18 | – |
| GAA T19C T53A T59G | 3.11 | 0.22 | – |

2 entries from above, as tab-separated lines.
Variant	tRNA Pol-III promoter activity (log2) [1]	tRNA 3' processing efficiency [2]	tRNA 5' processing efficiency [3]
GTA T19A A20C	4.38	0.18	–
GAA T19C T53A T59G	3.11	0.22	–

Later entries

| Variant | tRNA Pol-III promoter activity (log2) [1] | tRNA 3' processing efficiency [2] | tRNA 5' processing efficiency [3] |
| --- | --- | --- | --- |
| GGA A58T T59G | 2.94 | 0.25 | – |
| ATA A14G T59C | 10.2 | 0.41 | – |
| GTA T8C T59G | 3.24 | 0.17 | – |
| GTC G17C | 2.36 | 0.2 | – |
| GAA A14C A20C A58G | 3.94 | 0.43 | – |
| GGA T59G | 1.1 | 0.39 | – |
| AGA C55T | 3.3 | 0.17 | – |
| GAA T19A A20C C55T | 3.86 | 0.05 | – |
| GAA A14C T53G | 2.33 | 0.67 | – |
| GGG T59A | 4.83 | 0.69 | – |
| CAA C55G A58C | 3.21 | 0.5 | – |
| GAA T8G A14C G15C | 3.61 | 0.25 | – |
| GGA T8C T19A C55T | 5.53 | 0.33 | – |
| GAA T19A A20T A58G | 2.24 | 0.25 | – |
| GAG A14T A20T | 2.55 | 0.6 | 0.17 |
| GAT T8C A20G | 3.36 | 0.5 | 0.2 |
| GAA A14T C55G | -0.834 | 0.2 | 0.14 |
| GAA T19A A20G A41T T53A T54A | 4.68 | 0.8 | – |
| GAA G15C A20T A58C | 5.62 | 0.33 | – |
